# Patent US20260001875A1, “AMINOPYRIMIDINYL DERIVATIVES FOR THE TREATMENT OF PARKINSON'S DISEASE” (UNIVERSITY OF DUNDEE, priority 2022, published 2026)
# System: LRRK2
# Assay: NanoBRET-based ternary binding and cooperativity assay
# Conditions: IC50 without VCB / IC50 with VCB
# Method: The HEK293 cells were transfected with LRRK2-NanoLuc fusion vector (Promega, NV3401) following Promega's protocol and seeded into white 384-well plate (Corning3570) at a density of 6000 cells/well. The cells were then treated with 50 μg/mL of digitonin, 125 nM of LRRK2 tracer, testing compounds at decreasing concentrations (11 concentrations with 2-fold serial dilution starting from 10 μM) or testing compounds and VCB mix (11 concentrations with 2-fold serial dilution starting from 10 μM compound for the compound. The first 6 concentrations of VCB start from 32 μM with 2-fold dilution, the last 5 concentrations of VCB keep at 1 μM), and NanoBRET NanoGlo Substrate (Promega) at concentration recommended by the manufacturer's protocol. In the maximum signal control samples (DMSO control), DMSO was added instead of testing compounds. In the minimum signal control samples (no tracer control), DMSO and LRRK2 tracer dilution buffer were used to replace testing compounds and LRRK2 tracer separately. The filtered luminescence was measured within 10 min following addition of the substrate on a PHERAstar (BMG LABTECH) plate reader equipped with a 450-nm bandpass filter (donor) and a 600-nm long pass filter (acceptor). The fractional occupancy was calculated according to the equation: fractional occupancy=(mBRETtesting compound−mBRETno tracer control)/(mBRETDMSO control−mBRETno tracer control).
smiles,measurement,value
"CNc1nc(Nc2ccc(C(=O)N3CCN(C[C@H]4CC[C@H](CSC(C)(C)[C@H](NC(=O)C5(F)CC5)C(=O)N5C[C@H](O)CC5C(=O)NCc5ccc(-c6scnc6C)cc5)CC4)CC3)cc2OC)ncc1Cl (stereo partly drawn) [XL01126, (2S,4R)-1-((R)-3-((((1R,4R)-4-((4-(4-((5-chloro-4-(methylamino)pyrimidin-2-yl)amino)-3-methoxybenzoyl)piperazin-1-yl)methyl)cyclohexyl)methyl)thio)-2-(1-fluorocyclopropane-1-carboxamido)-3-methylbutanoyl)-4-hydroxy-N-(4-(4-methylthiazol-5-yl)benzyl)pyrrolidine-2-carboxamide]",cooperativity (a),5.7
"CNc1nc(Nc2ccc(C(=O)N3CCN(CCOCCOCCSC(C)(C)[C@H](NC(=O)C4(F)CC4)C(=O)N4C[C@H](O)C[C@H]4C(=O)NCc4ccc(-c5scnc5C)cc4)CC3)cc2OC)ncc1Cl [SD75, (2S,4R)-1-((R)-3-((2-(2-(2-(4-(4-((5-chloro-4-(methylamino)pyrimidin-2-yl)amino)-3-methoxybenzoyl)piperazin-1-yl)ethoxy)ethoxy)ethyl)thio)-2-(1-fluorocyclopropane-1-carboxamido)-3-methylbutanoyl)-4-hydroxy-N-(4-(4-methylthiazol-5-yl)benzyl)pyrrolidine-2-carboxamide]",cooperativity (a),0.79
CNc1nc(Nc2ccc(C(=O)N3CCN(C[C@H]4CC[C@@H](CSC(C)(C)[C@H](NC(=O)C5(F)CC5)C(=O)N5C[C@H](O)CC5C(=O)NCc5ccc(-c6scnc6C)cc5)CC4)CC3)cc2OC)ncc1Cl (stereo partly drawn) [XL01134],cooperativity (a),1.4
